The target of this experiment is NEDD4L (human (endogenous in A549)) (UniProt Q96PU5). Nature of the experiment: co-IP; fresh whole cell lysate of A549 cells in Tween-20 Co-IP buffer; immunoprecipitated with anti-NEDD4L, anti-c-Myc or control IgG and protein A/G-agarose beads overnight at 4°C; western blot.

By UniProt entry, the sequences of proteins in these tests, tags left out.
UniProt Q96PU5: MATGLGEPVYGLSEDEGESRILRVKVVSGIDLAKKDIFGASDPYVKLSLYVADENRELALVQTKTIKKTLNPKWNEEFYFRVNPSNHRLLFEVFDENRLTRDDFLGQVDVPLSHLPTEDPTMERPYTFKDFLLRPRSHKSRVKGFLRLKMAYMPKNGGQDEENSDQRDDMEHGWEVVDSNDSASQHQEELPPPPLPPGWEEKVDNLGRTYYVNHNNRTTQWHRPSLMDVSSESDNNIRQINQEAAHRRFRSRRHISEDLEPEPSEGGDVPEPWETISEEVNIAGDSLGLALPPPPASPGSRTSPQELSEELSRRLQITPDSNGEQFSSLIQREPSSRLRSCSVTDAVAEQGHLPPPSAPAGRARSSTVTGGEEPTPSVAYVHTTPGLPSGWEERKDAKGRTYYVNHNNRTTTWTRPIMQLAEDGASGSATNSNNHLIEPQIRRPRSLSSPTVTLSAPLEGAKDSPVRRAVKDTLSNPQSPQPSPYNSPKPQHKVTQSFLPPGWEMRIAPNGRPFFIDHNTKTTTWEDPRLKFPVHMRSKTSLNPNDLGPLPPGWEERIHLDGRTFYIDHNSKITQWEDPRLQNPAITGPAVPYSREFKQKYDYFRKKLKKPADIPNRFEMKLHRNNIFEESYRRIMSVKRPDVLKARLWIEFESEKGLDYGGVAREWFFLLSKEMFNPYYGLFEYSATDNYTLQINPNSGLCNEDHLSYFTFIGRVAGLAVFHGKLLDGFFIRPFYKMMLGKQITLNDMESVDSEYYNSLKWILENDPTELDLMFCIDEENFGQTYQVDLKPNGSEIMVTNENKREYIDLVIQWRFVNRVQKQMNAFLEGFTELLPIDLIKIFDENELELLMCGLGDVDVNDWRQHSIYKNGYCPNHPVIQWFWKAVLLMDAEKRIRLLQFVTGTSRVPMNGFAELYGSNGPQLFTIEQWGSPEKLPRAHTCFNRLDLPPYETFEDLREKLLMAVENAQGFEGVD
UniProt P01106: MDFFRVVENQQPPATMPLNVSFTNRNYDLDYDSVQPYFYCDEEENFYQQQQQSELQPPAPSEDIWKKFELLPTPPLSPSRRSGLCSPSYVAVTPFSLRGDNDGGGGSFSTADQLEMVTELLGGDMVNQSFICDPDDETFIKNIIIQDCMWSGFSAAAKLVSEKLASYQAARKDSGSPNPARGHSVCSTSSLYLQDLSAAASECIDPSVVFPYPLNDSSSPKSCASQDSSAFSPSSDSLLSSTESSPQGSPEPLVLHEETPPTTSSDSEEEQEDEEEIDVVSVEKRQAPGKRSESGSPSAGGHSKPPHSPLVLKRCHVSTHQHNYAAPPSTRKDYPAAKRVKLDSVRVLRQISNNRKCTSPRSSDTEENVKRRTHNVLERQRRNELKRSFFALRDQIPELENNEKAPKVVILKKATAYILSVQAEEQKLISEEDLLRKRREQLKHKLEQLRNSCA

No constants are given. Whether binding was seen depends on the method and setting. In cells and extracts the contact can be indirect. Some binding calls cover weakened binding; strength is not graded here.

c-Myc (from UniProt P01106 1-454): the binding entry is on record as “binds”.
